# PMC3642079
# The chains behind the UniProt entries cited, without tags or fusion partners.
# UniProt P03204: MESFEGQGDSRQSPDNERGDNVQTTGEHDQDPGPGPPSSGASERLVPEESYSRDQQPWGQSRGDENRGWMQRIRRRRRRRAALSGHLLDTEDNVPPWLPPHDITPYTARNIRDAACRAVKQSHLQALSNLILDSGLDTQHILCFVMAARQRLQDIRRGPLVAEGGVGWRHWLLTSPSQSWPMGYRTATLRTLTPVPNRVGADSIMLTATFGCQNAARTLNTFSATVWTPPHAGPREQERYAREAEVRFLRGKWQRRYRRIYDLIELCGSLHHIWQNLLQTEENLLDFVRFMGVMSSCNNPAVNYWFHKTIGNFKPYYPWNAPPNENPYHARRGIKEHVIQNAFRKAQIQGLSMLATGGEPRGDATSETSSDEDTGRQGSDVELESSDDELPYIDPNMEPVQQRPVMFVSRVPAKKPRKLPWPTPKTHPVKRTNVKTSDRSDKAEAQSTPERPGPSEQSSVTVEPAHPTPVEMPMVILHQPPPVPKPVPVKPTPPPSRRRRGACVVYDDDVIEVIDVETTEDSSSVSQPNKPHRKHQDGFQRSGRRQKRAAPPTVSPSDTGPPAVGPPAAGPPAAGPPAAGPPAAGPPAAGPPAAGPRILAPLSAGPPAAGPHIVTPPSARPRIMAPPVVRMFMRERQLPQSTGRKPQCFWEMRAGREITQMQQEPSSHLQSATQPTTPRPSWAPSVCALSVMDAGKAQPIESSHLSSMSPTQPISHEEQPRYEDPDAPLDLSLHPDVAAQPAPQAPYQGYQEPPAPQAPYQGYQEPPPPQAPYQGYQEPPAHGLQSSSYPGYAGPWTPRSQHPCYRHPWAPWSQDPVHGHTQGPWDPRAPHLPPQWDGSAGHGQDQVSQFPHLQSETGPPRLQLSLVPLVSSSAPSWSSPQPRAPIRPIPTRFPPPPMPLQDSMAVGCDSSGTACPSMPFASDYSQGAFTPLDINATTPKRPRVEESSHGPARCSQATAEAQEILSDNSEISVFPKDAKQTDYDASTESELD
# Results are given in words; binding and its absence hold for the method and conditions named. In cells and extracts the contact can be indirect. These calls come from enrichment with a bait or labelling near it, and not all partners need be listed.
# Molecular target: EBNA3C expressed in EBV-transformed lymphoblastoid cell lines LCL1 and LCL2 (Epstein-Barr virus) (UniProt P03204)
# Assay: affinity purification with mass spectrometry
row,Binder,binding
1,"endogenous IRF8 (protein, UniProt Q02556 1-426) MCDRNGGRRLRQWLIEQIDSSMYPGLIWENEEKSMFRIPWKHAGKQDYNQEVDASIFKAWAVFKGKFKEGDKAEPATWKTRLRCALNKSPDFEEVTDRSQLDISEPYKVYRIVPEEEQKCKLGVATAGCVNEVTEMECGRSEIDELIKEPSVDDYMGMIKRSPSPPEACRSQLLPDWWAQQPSTGVPLVTGYTTYDAHHSAFSQMVISFYYGGKLVGQATTTCPEGCRLSLSQPGLPGTKLYGPEGLELVRFPPADAIPSERQRQVTRKLFGHLERGVLLHSSRQGVFVKRLCQGRVFCSGNAVVCKGRPNKLERDEVVQVFDTSQFFRELQQFYNSQGRLPDGRVVLCFGEEFPDMAPLRSKLILVQIEQLYVRQLAEEAGKSCGAGSVMQAPEEPPPDQVFRMFPDICASHQRSFFRENQQITV",binds
2,"endogenous IRF4 (protein, UniProt Q15306 1-451) MNLEGGGRGGEFGMSAVSCGNGKLRQWLIDQIDSGKYPGLVWENEEKSIFRIPWKHAGKQDYNREEDAALFKAWALFKGKFREGIDKPDPPTWKTRLRCALNKSNDFEELVERSQLDISDPYKVYRIVPEGAKKGAKQLTLEDPQMSMSHPYTMTTPYPSLPAQQVHNYMMPPLDRSWRDYVPDQPHPEIPYQCPMTFGPRGHHWQGPACENGCQVTGTFYACAPPESQAPGVPTEPSIRSAEALAFSDCRLHICLYYREILVKELTTSSPEGCRISHGHTYDASNLDQVLFPYPEDNGQRKNIEKLLSHLERGVVLWMAPDGLYAKRLCQSRIYWDGPLALCNDRPNKLERDQTCKLFDTQQFLSELQAFAHHGRSLPRFQVTLCFGEEFPDPQRQRKLITAHVEPLLARQLYYFAQQNSGHFLRGYDLPEHISNPEDYHRSIRHSSIQE",binds
